At least one compound was matched to its structure with a doubt left.
Legend:
[1] = cited from earlier work
[2] = target: T1, 8.4 kDa immunophilin from Jurkat T-cells (Homo sapiens, UniProt P62979); experiment: Drug binding by the HPLC-purified protein isolated from Jurkat cells; conditions: HPLC eluate of Jurkat protein
T1 construct: endogenous in cells; host or cells: Jurkat T cells (protein purified from the cells, then by HPLC)

[3] = target: T2, recombinant human ubiquitin, bovine ubiquitin, calf thymus and Jurkat T cell 8.4 kDa immunophilins (Homo sapiens, UniProt P62979); experiment: Binding of tritiated FK-506 by HPLC eluates of ubiquitins and 8.4 kDa immunophilins; conditions: all four HPLC eluates
T2 construct: masses of 8474 and 8475, respectively, which is consistent with a 74 amino acid residue ubiquitin; purchased VLI Research (recombinant human ubiquitin); Sigma-Aldrich (bovine ubiquitin); plus in-house isolates from calf thymus and Jurkat T cells

8.4 kDa immunophilin = target: T3, 8.4 kDa immunophilin (Bos taurus, UniProt P62992); experiment: Saturation analysis of tritiated FK-506 binding to calf thymus 8.4 kDa immunophilin (Scatchard, Hill plots)
T3 construct: from tissue; host or cells: calf thymus
Excerpt: Analytical data on purified immunophilins may be obtained conventionally. Association constants, specific binding activities, and numbers and types of binding sites can be obtained from Scatchard and Hill plots, using EBDA and LIGAND software. Isoelectric points (“pI”) can be obtained by isofocussing techniques. To obtain amino acid composition data, samples can be hydrolyzed by HCl gas in the presence of internal standards (e.g., norvaline and sarcosine), the products derivatized with a fluorescent reagent, and the derivatized amino acids separated on a Hewlett-Packard AMINO QUANT Analyzer. […]
An immunophilin protein binding assay (“IBA”) carried out in accordance with this invention can be performed by solution phase or solid phase methods. […] Following attainment of equilibrium, the amount of labeled drug bound to the immunophilin is determined. The amount of labeled drug bound will be reduced in proportion to the amount of analyte in a biological sample being analyzed. The quantitative relationship between the reduction of immunophilin-bound labeled drug and the concentration of the analyte in the unknown sample is determined by reference to a standard calibration curve. […] The amount of labeled drug bound to an immunophilin need not be determined directly; it may be determined by subtracting from the total amount of label added […] in the solution at equilibrium. […]

calcineurin phosphatase = experiment: Calcineurin phosphatase inhibition by the immunophilin-FK-506 complex; type: biochemical; conditions: FK-506 complexed to 8.4 kDa immunophilin

Compound | immunosuppressive activity relative to parent [1] | binding to the protein [2] | binding to tritiated FK-506 [3] | Hill coefficient (8.4 kDa immunophilin; Hill plot) | Bmax (8.4 kDa immunophilin; Scatchard plot) | inhibition of calcineurin phosphatase (calcineurin phosphatase)
C=CCC1C=C(C)CC(C)CC(OC)C2OC(O)(C(=O)C(=O)N3CCCCC3C(=O)OC(C(C)=CC3CCC(O)C(O)C3)C(C)C(O)CC1=O)C(C)CC2OC (stereo not shown) [31-demethyl tacrolimus] | equal to that of its parent |  |  |  |  | 
C=CC[C@@H]1/C=C(\C)C[C@H](C)C[C@H](OC)[C@H]2O[C@@](O)(C(=O)C(=O)N3CCCC[C@H]3C(=O)O[C@H](/C(C)=C/[C@@H]3CC[C@@H](O)[C@H](OC)C3)[C@H](C)[C@@H](O)CC1=O)[C@H](C)C[C@@H]2OC [FK-506] |  | excellent binding | bound the drug with specificity and high affinity | 0.88 | 1.66 nM/mg protein | inhibits
CO[C@H]1C[C@@H]2CC[C@@H](C)[C@@](O)(O2)C(=O)C(=O)N2CCCC[C@H]2C(=O)O[C@H]([C@H](C)C[C@@H]2CC[C@@H](O)[C@H](OC)C2)CC(=O)[C@H](C)/C=C(\C)[C@@H](O)[C@@H](OC)C(=O)[C@H](C)C[C@H](C)/C=C/C=C/C=C/1C [RAP, rapamycin] |  | excellent binding |  |  |  | 
